Common to all, as to experiment: co-IP; 293T cells transfected with FLAG-tagged Cry constructs and V5-tagged Hausp or Fbxl3 (calcium phosphate or PEI), lysis buffer with 1% TX-100, IP and immunoblot; untreated or treated with doxorubicin, irradiation or MG132
Assay [1] has as its target T1, FLAG-Cry1 (pcDNA3-2xFlag-mCRY1) (mouse) (UniProt P97784).
T1 sequence: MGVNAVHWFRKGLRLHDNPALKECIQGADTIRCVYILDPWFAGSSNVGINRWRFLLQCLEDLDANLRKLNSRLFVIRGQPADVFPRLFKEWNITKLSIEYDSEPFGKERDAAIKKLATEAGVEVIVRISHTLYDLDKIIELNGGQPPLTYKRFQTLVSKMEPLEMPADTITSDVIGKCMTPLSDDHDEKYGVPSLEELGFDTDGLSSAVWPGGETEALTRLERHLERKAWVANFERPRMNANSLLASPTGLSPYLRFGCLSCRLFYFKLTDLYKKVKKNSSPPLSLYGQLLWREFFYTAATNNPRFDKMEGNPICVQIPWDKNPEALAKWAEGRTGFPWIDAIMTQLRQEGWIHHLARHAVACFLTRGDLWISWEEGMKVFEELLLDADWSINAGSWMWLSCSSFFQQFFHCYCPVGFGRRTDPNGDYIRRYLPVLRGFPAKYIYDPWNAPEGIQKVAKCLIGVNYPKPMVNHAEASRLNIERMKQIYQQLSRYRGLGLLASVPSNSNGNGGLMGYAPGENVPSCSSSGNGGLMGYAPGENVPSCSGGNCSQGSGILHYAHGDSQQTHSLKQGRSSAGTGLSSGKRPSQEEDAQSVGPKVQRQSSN

Protein sequences, listed by entry. Tags and fused reporters are not part of them. Lines headed by an entry give the natural chain unless they say otherwise; changes in a name come on top.
UniProt Q93009: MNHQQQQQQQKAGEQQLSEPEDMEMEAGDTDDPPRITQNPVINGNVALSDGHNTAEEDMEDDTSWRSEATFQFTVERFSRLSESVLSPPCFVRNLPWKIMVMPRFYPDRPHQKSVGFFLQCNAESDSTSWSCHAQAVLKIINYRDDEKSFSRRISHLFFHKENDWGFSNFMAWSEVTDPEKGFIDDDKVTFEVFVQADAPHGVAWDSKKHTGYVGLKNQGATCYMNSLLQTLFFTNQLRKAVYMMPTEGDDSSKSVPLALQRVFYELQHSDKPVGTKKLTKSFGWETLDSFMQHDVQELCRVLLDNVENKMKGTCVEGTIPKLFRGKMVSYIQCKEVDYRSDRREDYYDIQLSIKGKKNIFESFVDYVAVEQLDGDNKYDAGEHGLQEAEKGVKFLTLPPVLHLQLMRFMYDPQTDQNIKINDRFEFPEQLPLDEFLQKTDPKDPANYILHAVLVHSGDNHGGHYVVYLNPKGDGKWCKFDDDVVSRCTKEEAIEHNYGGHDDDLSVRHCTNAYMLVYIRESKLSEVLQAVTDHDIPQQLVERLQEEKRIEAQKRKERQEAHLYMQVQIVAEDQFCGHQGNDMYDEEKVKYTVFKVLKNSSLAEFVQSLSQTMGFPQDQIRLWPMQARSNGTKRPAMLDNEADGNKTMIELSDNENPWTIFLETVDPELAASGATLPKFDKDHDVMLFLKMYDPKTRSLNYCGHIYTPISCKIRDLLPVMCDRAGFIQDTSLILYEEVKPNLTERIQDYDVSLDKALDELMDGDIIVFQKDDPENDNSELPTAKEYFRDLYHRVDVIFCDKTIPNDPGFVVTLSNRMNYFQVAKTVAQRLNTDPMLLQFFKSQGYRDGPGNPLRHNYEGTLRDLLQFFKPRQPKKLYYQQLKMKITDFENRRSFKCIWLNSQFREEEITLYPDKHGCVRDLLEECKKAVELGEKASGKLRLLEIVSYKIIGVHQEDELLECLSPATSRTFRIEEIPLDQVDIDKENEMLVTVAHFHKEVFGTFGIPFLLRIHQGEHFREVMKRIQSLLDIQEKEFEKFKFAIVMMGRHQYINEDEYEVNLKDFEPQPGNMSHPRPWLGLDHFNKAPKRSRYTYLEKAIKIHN

Assay [2] concerns the target T2, FLAG-Cry1 S588D (mouse) (UniProt P97784).
T2 sequence: T1 sequence with S588D

Assay [3] addresses T2, FLAG-Cry1 S588D (mouse). This is another data set of the same source.
Assay [4] addresses T1, FLAG-Cry1 (pcDNA3-2xFlag-mCRY1) (mouse). The source holds these as a separate data set.
Assay [5] deals with T3, FLAG-Cry2 (pcDNA3-2xFlag-mCRY2) (mouse) (UniProt Q9R194).
T3 sequence: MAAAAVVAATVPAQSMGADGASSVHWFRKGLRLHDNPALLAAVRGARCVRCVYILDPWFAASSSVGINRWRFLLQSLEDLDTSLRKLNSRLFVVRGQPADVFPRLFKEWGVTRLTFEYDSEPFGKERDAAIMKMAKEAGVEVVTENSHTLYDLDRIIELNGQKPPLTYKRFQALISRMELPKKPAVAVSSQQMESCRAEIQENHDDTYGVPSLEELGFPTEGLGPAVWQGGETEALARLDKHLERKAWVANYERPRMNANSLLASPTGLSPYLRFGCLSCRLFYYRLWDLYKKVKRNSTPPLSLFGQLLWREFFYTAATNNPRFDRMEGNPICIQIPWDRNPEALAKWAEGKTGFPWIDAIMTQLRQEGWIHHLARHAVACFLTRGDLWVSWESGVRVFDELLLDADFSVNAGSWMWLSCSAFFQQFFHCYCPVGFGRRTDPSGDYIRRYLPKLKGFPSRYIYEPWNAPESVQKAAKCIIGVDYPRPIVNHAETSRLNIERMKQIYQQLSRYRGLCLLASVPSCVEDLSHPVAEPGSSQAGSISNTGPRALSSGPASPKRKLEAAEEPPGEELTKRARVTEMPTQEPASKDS

Substitutions are numbered along the chain they refer to. Where two headings read alike, the source gives them in different places. Results are given in words; binding and its absence hold for the method and conditions named. Binding seen in cells or lysates may run through a third protein. Some binding calls cover weakened binding; strength is not graded here. Where a sequence is shown, tags or fusion partners need not be part of it.

As for “Hausp S18A (V5-tagged) (from UniProt Q93009 1-1102) (enzyme)”, the binding result in assay [1] is given as “binds”.

As to “Hausp S18D (V5-tagged) (from UniProt Q93009 1-1102) (enzyme)”, the binding result in assay [1] is listed as “binds”.

On to “Hausp-V5 (from UniProt Q93009 1-1102) (enzyme)”, for which the binding result (with FLAG-Cry1 S588D (mouse) [2]; in assay [1]) was “binds” throughout.

B1: Fbxl3-V5 (pcDNA3-Fbxl3-v5) (protein, UniProt Q8C4V4 1-428)
chain: MKRGGRDSDQDSAEEGTAEKPKRPRTTQERSQPCDWGNLLQDIVLHVFKYLPLLDRAHASQVCRNWNQVFHMPDLWRCFEFELNQPATSYLKATHPELIKQIIKRHSNHLQYVSFKVDSSKESAEAACDILSQLVNCSLKTLGLISTARPSFMDLPKSHFISALTVVFVNSKSLSSLKIDDTPVDDPSLKVLVANNSDTLKLLKMSSCPHVSPAGILCVADQCHGLRELALNYHLLSDELLLALSSEKHVRLEHLRIDVVSENPGQTHFHTIQKSSWDAFIKHSPKVNLVMYFFLYEEEFDPFFRYEIPATHLYFGRSVSKDVLGRVGMTCPRLVELVVCANGLRPLDEELIRIAERCKNLSAIGLGECEVSCSAFVEFVKMCGGRLSQLSIMEEVLIPDQKYSLEQIHWEVSKHLGRVWFPDMMPTW
As for B1, the binding entry (with FLAG-Cry1 S588D (mouse) [3]; in assay [4]; in assay [5]) was “binds” each time.

(Values after article PMC4352707.)
